{
  "source": "patent US20230037103A1",
  "about": "“USE OF A COMPOUND OF 4-(3-ETHOXY-4-HYDROXYPHENYL) ALKYL KETONE TYPE AGAINST BACTERIA OF THE BURKHOLDERIA CEPACIA COMPLEX” (L’OREAL, priority 2019, published 2023)",
  "origin": "cited, not measured here",
  "test_system": "bacteria of the Bcc complex",
  "conditions": "levels used in industry; cited from earlier work",
  "data": [
    {"smiles": "CC(C)(C)CC(C)(C)c1ccc(OCCOCC[N+](C)(C)Cc2ccccc2)cc1", "note": "[benzethonium chloride]", "values": [
      {"measurement": "efficacy with respect to contamination by bacteria of the Bcc complex", "value": "ineffective"}
    ]}
  ]
}
